Patent EP0450461B1 (The Administrators of The Tulane Educational Fund, priority 1990, dated 1991)

Test: general procedure: Boc solid-phase peptide synthesis; benzhydrylamine HCl resin, about 1 meq NH2/g (Advanced ChemTech)
Settings: whole synthesis, TFA salt

Row | Substance | final HPLC purity (analytical HPLC, solvent system i, linear gradient) [%] | crude mass (scale 0.5 g resin, about 0.5 mmole) [mg]
1 | Ac-D-Nal(2)-D-Phe(4Cl)-D-Trp-Ser-Arg-D-Lys(A₂pr)-Leu-Arg-Pro-D-Ala-NH₂ | >95 | –
2 | Ac-[d2Nal][dPhe(4-Cl)][d3Pal]SR[dK]LRP[dA]-NH2 | – | 540

Square brackets hold non-standard residues; d marks the D form. dPhe(4-Cl) = N[C@H](Cc1ccc(Cl)cc1)C(=O)O; d2Nal = N[C@H](Cc1ccc2ccccc2c1)C(=O)O; d3Pal = N[C@H](Cc1cccnc1)C(=O)O
